The list shows a part of the results.
compound: c1cn2cc(-c3ccc4cn[nH]c4c3)nc(Nc3ccc(N4CCOCC4)cc3)c2n1 [entospletinib]; assay: log2 fold change, soluble protein after heating vs DMSO (PISA); higher = thermal stabilisation; K562 cells, 10 uM, 30 min; active = over 0.2 and 3.5 SD of the protein, either way, in both replicates (recomputed)
Procedure, shortened: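 K562 cells at 2×10^6 cells/mL were given 10 μM compound for 30 min. Aliquots then went through 3 min of heating across 48°C-58°C, were pooled, and were extracted in PBS with 0.5% NP-40 at 4°C, and the supernatant after 21,000xg for 90 min was quantified by TMTpro 16plex LC-MS/MS with channel sums equalised. Thermal stability relative to control samples, from duplicates, is given as log2 fold change.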

Amino acid sequences for entries named in this document (tags omitted). A change or cut given only in a name is not applied to a line headed by its entry.
UniProt Q9H3Q1: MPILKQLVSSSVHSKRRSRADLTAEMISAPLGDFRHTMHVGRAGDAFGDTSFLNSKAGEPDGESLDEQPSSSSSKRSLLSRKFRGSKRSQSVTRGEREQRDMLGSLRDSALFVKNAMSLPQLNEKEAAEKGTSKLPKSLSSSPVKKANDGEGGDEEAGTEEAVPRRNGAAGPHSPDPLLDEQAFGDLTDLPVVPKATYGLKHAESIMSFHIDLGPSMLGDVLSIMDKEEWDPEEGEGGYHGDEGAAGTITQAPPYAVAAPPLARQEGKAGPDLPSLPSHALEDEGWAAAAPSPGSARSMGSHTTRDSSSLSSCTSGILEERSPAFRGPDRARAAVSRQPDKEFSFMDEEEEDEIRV
UniProt P23528, whole entry, looked up: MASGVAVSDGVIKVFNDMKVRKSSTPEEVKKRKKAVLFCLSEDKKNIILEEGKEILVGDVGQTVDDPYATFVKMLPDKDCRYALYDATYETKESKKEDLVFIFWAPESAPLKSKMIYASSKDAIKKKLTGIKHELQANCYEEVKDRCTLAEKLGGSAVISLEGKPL
UniProt Q6ZMG9: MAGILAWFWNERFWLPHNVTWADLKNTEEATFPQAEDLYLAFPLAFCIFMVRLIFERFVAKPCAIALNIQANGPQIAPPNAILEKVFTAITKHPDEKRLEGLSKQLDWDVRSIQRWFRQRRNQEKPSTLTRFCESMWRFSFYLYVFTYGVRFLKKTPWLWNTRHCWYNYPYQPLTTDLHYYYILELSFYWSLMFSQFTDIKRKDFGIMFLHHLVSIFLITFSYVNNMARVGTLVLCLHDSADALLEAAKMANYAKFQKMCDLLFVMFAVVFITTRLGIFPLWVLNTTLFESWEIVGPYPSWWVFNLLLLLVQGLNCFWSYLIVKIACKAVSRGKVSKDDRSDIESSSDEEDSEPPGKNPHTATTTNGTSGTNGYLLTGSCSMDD
UniProt Q9UFW8: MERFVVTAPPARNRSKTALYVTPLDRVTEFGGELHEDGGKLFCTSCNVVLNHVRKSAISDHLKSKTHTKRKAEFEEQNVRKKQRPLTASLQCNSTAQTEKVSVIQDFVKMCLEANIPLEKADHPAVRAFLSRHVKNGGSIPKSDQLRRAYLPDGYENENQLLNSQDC
UniProt Q13112, whole entry, looked up: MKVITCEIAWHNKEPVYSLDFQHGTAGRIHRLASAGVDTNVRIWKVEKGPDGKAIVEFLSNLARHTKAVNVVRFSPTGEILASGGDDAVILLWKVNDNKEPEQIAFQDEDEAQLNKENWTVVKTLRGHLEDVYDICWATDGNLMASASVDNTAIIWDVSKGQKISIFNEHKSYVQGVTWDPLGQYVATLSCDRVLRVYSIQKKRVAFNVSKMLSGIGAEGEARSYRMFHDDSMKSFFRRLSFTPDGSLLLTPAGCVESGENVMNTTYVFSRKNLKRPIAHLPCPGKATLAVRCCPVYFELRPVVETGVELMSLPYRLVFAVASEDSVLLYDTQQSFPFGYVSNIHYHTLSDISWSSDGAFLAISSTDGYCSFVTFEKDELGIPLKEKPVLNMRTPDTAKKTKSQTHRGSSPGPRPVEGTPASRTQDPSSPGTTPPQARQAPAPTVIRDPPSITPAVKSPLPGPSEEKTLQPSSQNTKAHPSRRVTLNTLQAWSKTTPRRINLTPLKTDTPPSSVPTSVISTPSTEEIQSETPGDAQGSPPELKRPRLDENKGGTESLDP
UniProt O43633: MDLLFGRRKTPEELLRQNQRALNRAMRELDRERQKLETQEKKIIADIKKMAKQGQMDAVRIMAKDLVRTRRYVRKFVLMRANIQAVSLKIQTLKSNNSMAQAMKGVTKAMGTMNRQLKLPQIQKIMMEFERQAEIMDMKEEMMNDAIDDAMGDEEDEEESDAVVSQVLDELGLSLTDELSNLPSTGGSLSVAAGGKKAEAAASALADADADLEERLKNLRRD
UniProt Q96EP1: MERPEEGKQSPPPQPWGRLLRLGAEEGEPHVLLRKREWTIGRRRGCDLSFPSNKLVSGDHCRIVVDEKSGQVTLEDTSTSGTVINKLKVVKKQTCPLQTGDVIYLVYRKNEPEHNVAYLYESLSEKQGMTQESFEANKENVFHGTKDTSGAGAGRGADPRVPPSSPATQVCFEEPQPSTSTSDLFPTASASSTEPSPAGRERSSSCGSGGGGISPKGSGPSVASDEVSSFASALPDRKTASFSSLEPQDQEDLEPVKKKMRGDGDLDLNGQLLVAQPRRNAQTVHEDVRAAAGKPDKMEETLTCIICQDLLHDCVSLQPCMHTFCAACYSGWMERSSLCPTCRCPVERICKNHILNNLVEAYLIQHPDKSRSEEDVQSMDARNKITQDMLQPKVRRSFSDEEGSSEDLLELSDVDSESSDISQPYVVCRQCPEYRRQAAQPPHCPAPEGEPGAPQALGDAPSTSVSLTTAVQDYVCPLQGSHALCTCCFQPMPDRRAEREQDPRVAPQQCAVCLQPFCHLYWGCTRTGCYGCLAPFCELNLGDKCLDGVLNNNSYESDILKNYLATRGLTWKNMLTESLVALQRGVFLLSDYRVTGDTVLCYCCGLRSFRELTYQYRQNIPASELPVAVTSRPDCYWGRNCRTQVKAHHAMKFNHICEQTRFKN
UniProt Q9NZZ3: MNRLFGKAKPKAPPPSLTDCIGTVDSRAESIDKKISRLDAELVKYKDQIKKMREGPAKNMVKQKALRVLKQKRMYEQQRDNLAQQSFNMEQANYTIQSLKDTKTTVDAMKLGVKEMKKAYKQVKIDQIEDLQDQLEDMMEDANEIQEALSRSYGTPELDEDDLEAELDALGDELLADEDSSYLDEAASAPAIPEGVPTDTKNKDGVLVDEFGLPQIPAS
UniProt Q9BS16: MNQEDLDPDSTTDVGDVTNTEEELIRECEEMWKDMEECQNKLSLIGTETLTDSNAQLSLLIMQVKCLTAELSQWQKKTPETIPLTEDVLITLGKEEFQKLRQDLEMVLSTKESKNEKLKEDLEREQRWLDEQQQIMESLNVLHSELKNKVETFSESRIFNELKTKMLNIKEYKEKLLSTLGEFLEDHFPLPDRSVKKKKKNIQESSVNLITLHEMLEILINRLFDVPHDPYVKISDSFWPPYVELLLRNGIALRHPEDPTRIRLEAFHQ
UniProt Q9UQN3, whole entry, looked up: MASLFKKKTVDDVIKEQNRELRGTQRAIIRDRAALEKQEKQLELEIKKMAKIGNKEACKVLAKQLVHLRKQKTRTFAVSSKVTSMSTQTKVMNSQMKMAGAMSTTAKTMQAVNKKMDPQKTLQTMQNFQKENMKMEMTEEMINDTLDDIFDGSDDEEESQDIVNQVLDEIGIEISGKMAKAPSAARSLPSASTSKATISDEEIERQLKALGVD
UniProt P49454: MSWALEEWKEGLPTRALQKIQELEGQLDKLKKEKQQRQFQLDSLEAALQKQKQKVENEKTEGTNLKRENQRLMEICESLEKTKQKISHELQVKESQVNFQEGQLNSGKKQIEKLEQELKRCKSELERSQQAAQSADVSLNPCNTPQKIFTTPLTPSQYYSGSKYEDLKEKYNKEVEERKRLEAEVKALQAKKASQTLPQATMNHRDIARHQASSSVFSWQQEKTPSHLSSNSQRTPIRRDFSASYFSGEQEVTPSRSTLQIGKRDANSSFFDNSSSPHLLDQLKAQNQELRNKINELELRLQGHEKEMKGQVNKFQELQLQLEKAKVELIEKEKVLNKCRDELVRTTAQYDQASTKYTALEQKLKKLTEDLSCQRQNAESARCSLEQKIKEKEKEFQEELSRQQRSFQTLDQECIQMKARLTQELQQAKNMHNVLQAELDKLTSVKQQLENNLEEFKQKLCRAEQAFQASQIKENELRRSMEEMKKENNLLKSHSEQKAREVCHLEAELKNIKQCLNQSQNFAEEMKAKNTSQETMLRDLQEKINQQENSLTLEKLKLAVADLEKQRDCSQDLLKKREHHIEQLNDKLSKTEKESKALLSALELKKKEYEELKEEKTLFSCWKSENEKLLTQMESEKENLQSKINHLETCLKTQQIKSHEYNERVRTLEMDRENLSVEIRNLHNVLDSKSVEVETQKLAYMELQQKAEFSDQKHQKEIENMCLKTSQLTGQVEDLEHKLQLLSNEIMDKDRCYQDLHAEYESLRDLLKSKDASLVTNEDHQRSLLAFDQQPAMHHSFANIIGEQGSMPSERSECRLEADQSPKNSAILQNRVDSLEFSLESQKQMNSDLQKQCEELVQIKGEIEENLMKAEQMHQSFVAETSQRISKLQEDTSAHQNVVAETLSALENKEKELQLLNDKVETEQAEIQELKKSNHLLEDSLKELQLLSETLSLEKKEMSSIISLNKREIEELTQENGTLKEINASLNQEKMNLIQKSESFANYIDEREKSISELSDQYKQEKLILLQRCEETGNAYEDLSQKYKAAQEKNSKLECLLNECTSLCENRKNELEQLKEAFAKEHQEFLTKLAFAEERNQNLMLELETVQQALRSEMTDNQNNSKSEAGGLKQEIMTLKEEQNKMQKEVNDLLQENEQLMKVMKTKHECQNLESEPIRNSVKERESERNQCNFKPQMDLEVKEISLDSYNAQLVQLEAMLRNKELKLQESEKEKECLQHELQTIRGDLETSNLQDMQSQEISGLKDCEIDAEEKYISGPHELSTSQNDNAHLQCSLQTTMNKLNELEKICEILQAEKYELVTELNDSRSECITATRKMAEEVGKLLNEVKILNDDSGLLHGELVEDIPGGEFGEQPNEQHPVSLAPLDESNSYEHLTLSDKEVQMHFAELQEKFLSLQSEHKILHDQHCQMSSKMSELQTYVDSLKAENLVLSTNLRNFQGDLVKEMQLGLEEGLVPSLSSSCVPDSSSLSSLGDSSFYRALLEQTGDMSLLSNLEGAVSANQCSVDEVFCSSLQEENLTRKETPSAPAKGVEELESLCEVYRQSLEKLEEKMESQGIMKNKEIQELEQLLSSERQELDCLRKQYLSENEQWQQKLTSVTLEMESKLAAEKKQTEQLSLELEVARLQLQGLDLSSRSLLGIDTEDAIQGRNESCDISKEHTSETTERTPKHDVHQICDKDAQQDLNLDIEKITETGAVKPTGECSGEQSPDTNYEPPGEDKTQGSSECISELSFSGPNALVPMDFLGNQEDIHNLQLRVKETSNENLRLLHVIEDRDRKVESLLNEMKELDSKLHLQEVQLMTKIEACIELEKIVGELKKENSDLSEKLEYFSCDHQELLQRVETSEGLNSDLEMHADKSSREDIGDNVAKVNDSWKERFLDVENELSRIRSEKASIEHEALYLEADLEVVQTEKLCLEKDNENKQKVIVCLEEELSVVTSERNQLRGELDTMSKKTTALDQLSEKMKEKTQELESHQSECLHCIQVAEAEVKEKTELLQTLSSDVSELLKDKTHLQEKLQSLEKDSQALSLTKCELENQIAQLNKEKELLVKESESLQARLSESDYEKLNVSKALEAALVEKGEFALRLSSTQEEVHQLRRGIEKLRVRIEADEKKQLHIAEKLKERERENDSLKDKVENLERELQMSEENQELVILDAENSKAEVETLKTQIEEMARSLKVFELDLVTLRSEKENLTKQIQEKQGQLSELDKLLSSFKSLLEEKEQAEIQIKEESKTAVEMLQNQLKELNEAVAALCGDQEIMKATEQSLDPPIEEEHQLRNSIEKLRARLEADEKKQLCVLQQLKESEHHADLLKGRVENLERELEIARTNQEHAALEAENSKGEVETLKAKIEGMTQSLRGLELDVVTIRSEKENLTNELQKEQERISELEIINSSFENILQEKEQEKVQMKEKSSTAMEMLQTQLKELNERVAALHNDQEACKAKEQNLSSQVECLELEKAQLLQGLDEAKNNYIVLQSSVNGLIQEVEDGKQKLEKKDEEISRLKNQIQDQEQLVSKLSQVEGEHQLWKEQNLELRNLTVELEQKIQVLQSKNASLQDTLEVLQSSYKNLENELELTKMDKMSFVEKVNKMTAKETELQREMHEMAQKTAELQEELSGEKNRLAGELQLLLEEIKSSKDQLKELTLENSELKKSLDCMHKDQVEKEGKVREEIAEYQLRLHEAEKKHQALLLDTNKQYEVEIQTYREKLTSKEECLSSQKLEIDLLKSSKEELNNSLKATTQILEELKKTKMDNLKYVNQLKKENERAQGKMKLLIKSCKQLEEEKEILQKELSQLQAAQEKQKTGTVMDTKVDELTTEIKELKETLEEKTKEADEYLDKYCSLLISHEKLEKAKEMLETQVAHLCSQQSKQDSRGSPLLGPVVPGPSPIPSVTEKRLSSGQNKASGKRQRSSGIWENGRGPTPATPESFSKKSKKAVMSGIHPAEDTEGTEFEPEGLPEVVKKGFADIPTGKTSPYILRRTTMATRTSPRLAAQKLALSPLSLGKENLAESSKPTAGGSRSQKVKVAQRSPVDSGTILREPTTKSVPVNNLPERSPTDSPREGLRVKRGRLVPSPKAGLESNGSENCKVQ

log2 fold change, inactive:
CEBPB (UniProt P17676) 0.029
CDC42EP4 (UniProt Q9H3Q1) 0.014
CFL1 (UniProt P23528) 0.023
CERS6 isoform 2 (UniProt Q6ZMG9) 0.18
CEP170B (UniProt Q9Y4F5) 0.075
CGGBP1 (UniProt Q9UFW8) -0.024
CHAF1B (UniProt Q13112) 0.006
CHMP2A (UniProt O43633) -0.068
CHFR (UniProt Q96EP1) -0.342
CHMP5 (UniProt Q9NZZ3) -0.013
CDC42BPG (UniProt Q6DT37) 0.179
CENPK (UniProt Q9BS16) 0.105
CHMP2B (UniProt Q9UQN3) -0.022
CENPF (UniProt P49454) 0.012
CEP192 (UniProt Q8TEP8) 0.078

A portion from the list above, as a working copy:
log2 fold change, inactive:
CENPK (UniProt Q9BS16) 0.105
CHMP2B (UniProt Q9UQN3) -0.022
CENPF (UniProt P49454) 0.012
